Experimental findings from PubChem BioAssay AID2685 (National Center for Advancing Translational Sciences (NCATS), 2010) are described below.

A short description of the experiment: qHTS Assay for Lipid Storage Modulators in Drosophila S3 Cells.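 For cell number change: cells counted by Cell Tracker Red CMTPX staining in the red channel.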 Particulars: BODIPY lipid droplet fluorescence, 18-24 h; for cell number change: measured here: cell count max response, cells fed with added oleic acid. A digest of the protocol: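 Drosophila S3 cells loaded with oleic acid (400 uM, as added) and compounds at several concentrations; lipid droplets imaged by 488-nm laser-scanning cytometry, 500–530 nm intensity and object ratio to cell channel. Percent activity normalized to 20 uM Triacsin C.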
For orientation: qHTS replaces the single test concentration by a dilution series.

The mark [1] stands for this setting: measured here: lipid fluorescence (Fed channel) AC50, cells fed with added oleic acid.
Setting [2] is: measured here: cell number channel AC50, cells fed with added oleic acid.

Some of the results follow. Further columns of the screen follow, without active or inactive calls. Compounds called inactive in the main read-out are mostly missing here. Words in brackets tell the shape of the fitted curve; partial curves, single points and poor fits give uncertain potencies.

Turning to `COc1ccc(CNC(=O)C2CCN(c3nccs3)CC2)cc1`, the cell number change came to 1.03%. Besides, the AC50 (usually the concentration giving half of the maximal activity seen) under setting [1] was 4110 nM [falling, partial curve, poor fit]. For the molecule `CC(=O)c1ccc(N2CCN(C(=O)Nc3cccc(F)c3)CC2)cc1`, the cell number change worked out at 111%. For `COCCCNC(=S)N(Cc1ccccc1)Cc1ccc(F)cc1`, the cell number change was 4.4%. Consider `CCOC(=O)c1c(CSc2ccsc2)n(C)c2cc(Br)c(O)c(CN(C)C)c12`, for which the cell number change was -0.12%. In addition, the concentration at half-maximal activity (AC50) under setting [1] is 4.61 nM [falling, full curve, poor fit]. For the molecule `Cc1c(CNC(=O)c2nn3c(c2Cl)NC(c2ccccc2)CC3C(F)(F)F)cnn1C` (stereo not drawn), the cell number change is -19%. The AC50 under setting [1] is 4.11 nM [rising, full curve, poor fit]. For `COCCNC(=O)c1ccccc1NC(=O)CN(c1ccc2c(c1)OCO2)S(C)(=O)=O`, the AC50 under setting [2] was 2060 nM [rising, partial curve] and the AC50 under setting [1] is 6510 nM [rising, partial curve]. For `O=C(Nc1ccc2c(c1)OCO2)c1ccc2nc[nH]c2c1`, under setting [2], the AC50 is 92 nM [rising, full curve, poor fit]. In the case of `CCCN(CCC)S(=O)(=O)c1ccc(C(=O)Nc2nnc(-c3cccc(OC)c3)o2)cc1`, the cell number change is 35.7%. Also, under setting [2], the AC50 was 4110 nM [rising, partial curve]. Moreover, the AC50 under setting [1] was 4610 nM [rising, partial curve].

For `CC1(C)CC(=O)C2=C(C1)Nc1nc(SCCN3CCOCC3)[nH]c(=O)c1C2c1cccs1` (stereo not drawn), the cell number change was 8.91%. The AC50 under setting [1] is 731 nM [falling, full curve]. With `O=[N+]([O-])c1ccc2[nH]c(O)c(N=NC3CCS(=O)(=O)C3)c2c1` (stereo not drawn), the cell number change was 14.2%. Besides, under setting [1], the AC50 was 7310 nM [rising, partial curve]. As for `Cc1ccc(C)c(NC(=O)C2CCC(C)(C(=O)O)C2(C)C)c1` (stereo not drawn), the cell number change worked out at 9.5%. In addition, the AC50 under setting [2] was 1030 nM [falling, full curve]. Also, the AC50 under setting [1] is 580 nM [falling, partial curve, poor fit].

On to `CN1C(C(=O)NCc2ccc(OC(F)(F)F)cc2)CC2Cn3c(nc4cc5ccccc5cc43)C21` (stereo not drawn), for which the cell number change was determined as 8.58%. In addition, the AC50 under setting [1] was 7310 nM [rising, partial curve].

On to `c1ccc2c(c1)CCc1c(-c3ccncc3)n[nH]c1-2`, for which the AC50 under setting [1] is 29100 nM [falling, partial curve, poor fit]. On to `CCN1C(=O)[C@H]2[C@@H](c3ccc(-c4ccccc4)cc3)N3CCC[C@@]3(C(=O)OC)[C@H]2C1=O`, for which the cell number change is -3.3%. The AC50 under setting [2] was 461 nM [falling, partial curve, poor fit]. As for `Cc1ccc2nc(N/C(N)=N/S(=O)(=O)c3ccc([N+](=O)[O-])cc3)nc(C)c2c1`, the cell number change was found to be 17%. The AC50 under setting [1] was 16400 nM [rising, single point]. As to `COc1ccc(C(=O)N=c2sccn2C)cc1`, the cell number change stood at 3.65%. Same read-out and setting: the same measure for `Cc1cccc(C)c1N1CCN(c2ccc3nnc(C(F)(F)F)n3n2)CC1`: -0.34%. Regarding `CNC(=O)COc1ccc(-c2nn(C)c(=O)c3ccccc23)cc1`, the AC50 is, setting by setting: under setting [2], 3660 nM [rising, partial curve, poor fit]; under setting [1], 731 nM [rising, single point]. As for `CCC(=O)N1CCc2cc(OC)c(OC)cc2C1COc1ccc(C(=O)OC)cc1` (stereo not drawn), the AC50 is 6510 nM [rising, single point] under setting [2] and 4110 nM [rising, partial curve] under setting [1]. In the case of `CCOC(=O)C1=C(C)NC(C)=C(C(=O)OCC)C1C(=O)OCC(N)=O`, the cell number change came out at 51.2%. Also, the AC50 under setting [2] was 130 nM [rising, full curve, poor fit]. The AC50 under setting [1] is 29100 nM [rising, single point]. On to `CCCc1ccc(NC(=O)C2CCN(c3cnccn3)CC2)cc1`, for which the AC50 by setting is: under setting [2], 4110 nM [rising, partial curve]; under setting [1], 5170 nM [rising, single point]. Consider `Cc1ccc(C(=O)NC2CCN(C(=O)Nc3ccccc3Cl)CC2)cc1`, for which the cell number change is 3.85%. For the same molecule, the AC50 under setting [1] was 29100 nM [rising, single point]. For `COc1ccc(/C=N/NC(=O)CSc2ccccc2)cc1OC`, the cell number change was determined as 44.1%. In addition, the AC50 under setting [2] is 2590 nM [rising, partial curve]. Also, the AC50 under setting [1] is 1840 nM [rising, full curve]. As to `Cc1ccc(NC(=O)CCNS(=O)(=O)c2ccc3c(c2)CCC(=O)N3)cc1C`, the cell number change is -11.8%. For the same molecule, the AC50 under setting [1] was 6510 nM [rising, single point]. `Cc1cccc(C(=O)OCC(=O)N2CC(C)OC(C)C2)c1C` (stereo not drawn): the cell number change worked out at 7.69%. Also, under setting [1], the AC50 is 65.1 nM [falling, full curve, poor fit]. For the molecule `CCCOc1ccc(C(=O)C(CN2CCCC2)c2ccccc2)cc1` (stereo not drawn), the cell number change is -36.3%. Under setting [2], the AC50 was 32600 nM [falling, single point]. In addition, under setting [1], the AC50 is 23100 nM [falling, partial curve]. As for `O=C(O)CCN1c2ccccc2Sc2ccccc21`, the cell number change was -52.3%. Moreover, under setting [2], the AC50 was 20600 nM [falling, single point]. For the same molecule, the AC50 under setting [1] is 23100 nM [falling, single point].

For the molecule `CC(=O)NC(CC(=O)NCC(c1ccco1)N(C)C)c1ccccc1` (stereo not drawn), the cell number change is -8.85%. Under setting [1], the AC50 was 820 nM [falling, single point]. Regarding `COc1cccc(C(=O)Nc2cc(C(=O)NCCc3ccccc3)ccc2Cl)c1`, the cell number change is 52.8%. Further, the AC50 under setting [2] is 1160 nM [rising, full curve, poor fit]. Besides, under setting [1], the AC50 is 6510 nM [rising, single point].

For the molecule `CSCCC(NS(=O)(=O)c1ccc(Cl)cc1)C(=O)O` (stereo not drawn), the cell number change is -33.8%. In addition, the AC50 under setting [2] was 820 nM [falling, full curve, poor fit]. Take `O=C(NC1CCS(=O)(=O)C1)/C(=C\c1ccco1)NC(=O)c1ccccc1` (stereo not drawn): the cell number change was -14.2%. In addition, under setting [2], the AC50 was 164 nM [falling, full curve, poor fit].

As to `O=C(Nc1nnc(SCc2ccc(F)cc2)s1)c1ccccn1`, the cell number change is -8.95%. Besides, the AC50 under setting [2] was 580 nM [falling, full curve, poor fit]. In addition, the AC50 under setting [1] was 2310 nM [falling, partial curve, poor fit].

With `Cc1cccc(NCc2nc(SCC(=O)Nc3ccccc3Br)n[nH]2)c1`, the cell number change stood at 13.5%. Under setting [1], the AC50 was 103 nM [rising, full curve, poor fit]. As to `COc1cc(-c2nn3c(-c4ccccc4)nnc3s2)cc(OC)c1OC`, the cell number change stood at 38.1%. Also, the AC50 under setting [2] is 13000 nM [rising, partial curve]. Also, the AC50 under setting [1] was 259 nM [rising, full curve]. Turning to `CCCCn1c(SCC(=O)OC)nc2c1c(=O)n(C)c(=O)n2C`, the cell number change is -18.8%. In addition, the AC50 under setting [1] was 5.17 nM [falling, full curve]. With `CC(/C=C/C=C/c1ccccc1)=N/NC(=O)CNc1ccccc1C`, the cell number change is 8.22%. Also, the AC50 under setting [1] was 29100 nM [falling, single point]. As for `O=C(CN1CCCCCC1)Nc1cc([N+](=O)[O-])ccc1Cl`, the cell number change was determined as 5.46%. Also, the AC50 under setting [1] was 206 nM [rising, single point].

Take `O=C(Nc1cccc(S(=O)(=O)c2cccc(NC(=O)c3ccco3)c2)c1)c1ccco1`: the cell number change was -12.5%. As to `COc1ccc(/C=N/Nc2ccccc2)cc1Cn1nc(C)c([N+](=O)[O-])c1C`, under setting [1], the AC50 was 6510 nM [rising, single point].

On to `COc1ccc(Cl)cc1NC(=O)CN(C)CC(=O)NCc1cccs1`, for which the cell number change came out at 10.1%. Under setting [1], the AC50 was 58 nM [rising, full curve, poor fit]. Regarding `CCN(CC)C(=O)CSc1nc2ncccc2[nH]1`, the cell number change stood at 11%. Besides, the AC50 under setting [2] is 92 nM [falling, full curve, poor fit]. For `COc1ccc2c3n(nc2c1)CCN=C3c1cc(Cl)c(N)c(Cl)c1`, the cell number change is -12.3%. The AC50 under setting [1] was 5800 nM [rising, full curve, poor fit]. As to `COCCCNC(=S)N/N=C/c1ccc(O)cc1O`, the cell number change is -9.68%. Besides, the AC50 under setting [1] was 1160 nM [falling, full curve].

For the molecule `Cc1ccc(NC(=O)CN2C(=O)S/C(=C\c3cc(Cl)c(OCC(=O)O)c(Cl)c3)C2=O)cc1`, the cell number change turned out to be 1.76%. Consider `Cc1ccc(N2CC(C(=O)Nc3ccccc3C(=O)N3CCOCC3)CC2=O)cc1` (stereo not drawn), for which the cell number change is -15.5%. Also, the AC50 under setting [1] was 3260 nM [rising, partial curve]. As to `CCOC(=O)C1CCN(Cc2cccc(OC)c2)CC1`, the cell number change is 12.8%. Moreover, the AC50 under setting [1] was 6510 nM [rising, full curve, poor fit].

Consider `COc1ccccc1C(=O)Nc1cc(Cl)ccc1-n1cncn1`, for which the cell number change was found to be 30.1%. In the case of `O=C1CC(N2CCN(c3ccc(O)cc3)CC2)C(=O)N1c1ccc2c(c1)OCO2` (stereo not drawn), the cell number change amounted to 27%. For the same molecule, the AC50 under setting [1] was 130 nM [falling, full curve, poor fit]. In the case of `COc1ccc(CNC(=O)N2CCN(C(=O)c3ccccc3)CC2)cc1`, the cell number change is -18.1%. Regarding `O=C1c2[nH]nc(-c3ccccc3O)c2C(c2ccc(F)cc2)N1Cc1ccco1` (stereo not drawn), the cell number change was -51.1%. Also, the AC50 under setting [2] was 18400 nM [falling, single point]. For the same molecule, under setting [1], the AC50 was 29100 nM [falling, single point].

As for `O=C(O)CSc1nc2c(c(C(F)(F)F)n1)CCc1ccccc1-2`, the cell number change was determined as 25.2%. Further, the AC50 under setting [2] was 920 nM [rising, full curve]. Further, under setting [1], the AC50 was 920 nM [rising, full curve]. On to `CCn1c(COc2ccccc2OC)nnc1SCC#N`, for which the cell number change was 22.6%. For the molecule `COc1ccc(-n2nc(C(N)=O)c(O)cc2=O)cc1`, the concentration at half-maximal activity (AC50) under setting [1] is 580 nM [rising, single point]. As to `CCN(CC)C(=O)CN1C(=O)NC2(CCc3ccccc3C2)C1=O` (stereo not drawn), the cell number change is -46.5%. For `O=[N+]([O-])c1ccccc1OCCOCCOc1cccc2cccnc12`, the cell number change was -10.1%. Under setting [1], the AC50 was 2060 nM [rising, full curve]. As for `COC(=O)CNC(=O)C(Cc1ccccc1)NS(=O)(=O)c1ccc2c(c1)c(=O)n(C)c(=O)n2C` (stereo not drawn), the cell number change was -31.8%. Also, the AC50 under setting [2] is 16400 nM [falling, partial curve]. Also, the AC50 under setting [1] is 29100 nM [falling, single point]. For the molecule `CCOc1ccc(NC(=O)CN(C)C(=O)c2ccccc2CCc2ccccc2)cc1OCC`, the cell number change worked out at 35.4%. The AC50 under setting [2] is 2310 nM [rising, partial curve]. Besides, the AC50 under setting [1] was 4610 nM [rising, partial curve].
